Data on one compound can be found in patent publication US8067424B2, “Selective inhibitors for cyclin-dependent kinases” (Emory University, priority 2007, dated 2011).

Protein sequences, listed by entry. Tags and fused reporters are not part of them.
UniProt P50613, whole entry: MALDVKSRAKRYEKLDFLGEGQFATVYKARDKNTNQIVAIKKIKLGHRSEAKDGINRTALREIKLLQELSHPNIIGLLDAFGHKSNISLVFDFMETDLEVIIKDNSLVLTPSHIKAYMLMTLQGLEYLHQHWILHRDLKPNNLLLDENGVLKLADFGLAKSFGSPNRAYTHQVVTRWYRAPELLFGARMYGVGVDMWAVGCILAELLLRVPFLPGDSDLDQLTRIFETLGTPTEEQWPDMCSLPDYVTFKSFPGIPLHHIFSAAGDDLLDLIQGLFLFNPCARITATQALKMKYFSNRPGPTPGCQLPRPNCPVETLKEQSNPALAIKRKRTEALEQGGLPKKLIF
UniProt P51946, whole entry partner: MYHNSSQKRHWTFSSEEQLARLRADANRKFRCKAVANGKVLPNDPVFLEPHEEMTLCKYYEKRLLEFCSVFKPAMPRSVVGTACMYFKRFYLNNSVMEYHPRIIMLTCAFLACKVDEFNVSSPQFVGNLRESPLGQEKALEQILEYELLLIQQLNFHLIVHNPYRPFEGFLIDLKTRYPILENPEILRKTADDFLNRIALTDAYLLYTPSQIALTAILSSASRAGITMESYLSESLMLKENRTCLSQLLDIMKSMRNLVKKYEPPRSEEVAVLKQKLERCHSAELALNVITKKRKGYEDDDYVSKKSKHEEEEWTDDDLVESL
UniProt P51948, whole entry partner: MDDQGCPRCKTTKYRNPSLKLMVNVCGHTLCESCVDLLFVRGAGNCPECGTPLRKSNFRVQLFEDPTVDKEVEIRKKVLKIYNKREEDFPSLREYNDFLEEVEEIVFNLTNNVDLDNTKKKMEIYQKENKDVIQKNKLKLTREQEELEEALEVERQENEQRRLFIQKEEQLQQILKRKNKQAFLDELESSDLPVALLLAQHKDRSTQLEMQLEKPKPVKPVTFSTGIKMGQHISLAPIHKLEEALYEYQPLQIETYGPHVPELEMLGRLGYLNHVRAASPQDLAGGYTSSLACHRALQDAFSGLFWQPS

Molecules are shown by their SMILES. The structures given here were assigned with low confidence; some may be wrong.

For one series, the system named is MCF-7 cell line. The settings on record: MCF-7, SRB assay, 24 hours. Background: The SRB assay estimates cell density from bound dye.
Series [1] addresses CDK7 complex (CDK7, Cyclin H, MAT1) (Homo sapiens, UniProt P50613). The series is described as follows: CDK7/CycH/MAT1 trimeric complex kinase assay (PKLight luciferase). The following applies: mean of three (standard deviation).

In the case of `CC(C)c1cnn2c(N(Cc3ccc(S(=O)(=O)N(C)C)cc3)C(=O)OC(C)(C)C)cc(Cl)nc12`, the TGI (usually the concentration at which net growth stops) in the series on MCF-7 cell line stood at 31 µM. The IC50 (commonly the concentration at which inhibition is half-maximal) in the series with MCF-7 cell line (mean of three experiments) is 51 µM. In addition, the CC50 in the series on MCF-7 cell line (read-out: LC50) was determined as 16 µM. For the same compound, the “CDK7 % remaining kinase activity after incubation with 100 nM of compound” value in series [1] is on record as 63% (9.0).
